Results of single-concentration screens

Protein sequences, listed by entry. Tags and fused reporters are not part of them. Residues count along the entry.
UniProt P9WPC5, whole entry: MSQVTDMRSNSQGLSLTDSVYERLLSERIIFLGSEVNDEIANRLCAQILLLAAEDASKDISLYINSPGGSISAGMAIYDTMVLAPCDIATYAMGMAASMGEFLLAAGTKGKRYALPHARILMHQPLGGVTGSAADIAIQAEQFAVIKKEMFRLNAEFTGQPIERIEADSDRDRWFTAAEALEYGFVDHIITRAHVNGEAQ
UniProt P9WPC3, whole entry partner: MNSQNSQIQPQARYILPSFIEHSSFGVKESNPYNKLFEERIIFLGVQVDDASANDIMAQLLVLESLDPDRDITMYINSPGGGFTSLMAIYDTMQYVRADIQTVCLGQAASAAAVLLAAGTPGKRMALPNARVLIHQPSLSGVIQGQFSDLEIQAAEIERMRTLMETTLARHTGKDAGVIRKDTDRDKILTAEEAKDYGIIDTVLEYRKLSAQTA
UniProt P9WNZ1, whole entry: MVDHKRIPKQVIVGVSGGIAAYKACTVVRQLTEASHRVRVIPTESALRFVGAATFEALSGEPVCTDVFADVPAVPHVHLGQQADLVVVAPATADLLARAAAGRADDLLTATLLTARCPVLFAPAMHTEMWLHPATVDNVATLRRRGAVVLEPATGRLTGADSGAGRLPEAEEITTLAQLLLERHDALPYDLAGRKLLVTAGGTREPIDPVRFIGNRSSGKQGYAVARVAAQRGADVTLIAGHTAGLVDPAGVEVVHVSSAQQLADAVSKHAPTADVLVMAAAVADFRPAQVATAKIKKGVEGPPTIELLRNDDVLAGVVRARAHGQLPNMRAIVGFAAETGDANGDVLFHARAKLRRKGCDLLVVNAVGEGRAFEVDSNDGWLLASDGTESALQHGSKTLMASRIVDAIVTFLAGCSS
UniProt A4I591, 1-473: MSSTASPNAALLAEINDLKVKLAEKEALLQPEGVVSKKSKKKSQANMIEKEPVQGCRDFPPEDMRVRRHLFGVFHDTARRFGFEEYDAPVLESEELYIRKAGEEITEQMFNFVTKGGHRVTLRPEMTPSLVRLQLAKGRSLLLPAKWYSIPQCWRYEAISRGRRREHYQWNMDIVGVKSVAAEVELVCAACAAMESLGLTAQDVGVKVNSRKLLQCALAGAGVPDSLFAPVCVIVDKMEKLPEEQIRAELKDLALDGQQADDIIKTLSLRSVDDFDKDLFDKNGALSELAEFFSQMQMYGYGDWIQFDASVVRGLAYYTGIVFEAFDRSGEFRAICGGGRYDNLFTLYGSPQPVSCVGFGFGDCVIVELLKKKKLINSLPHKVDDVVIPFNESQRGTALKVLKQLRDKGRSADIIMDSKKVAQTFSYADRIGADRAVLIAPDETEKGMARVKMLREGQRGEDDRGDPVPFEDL

Data taken from ChEMBL document CHEMBL3988442, “University of Dundee, Small-Polar-MMV Screening Library” (2021).

Values are the deposited “Percent Effect”, in %. The controls that fix the scale are not given in the record; negative values are as filed. Compounds were drawn at random from those tested, without regard to their results. Two or more numbers in one place are separate tests of the same structure; such repeats can differ widely. A dash means the value is not listed here; it may have been measured.

ClpP1P2: 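ClpP1P2, Mycobacterium tuberculosis (UniProt P9WPC5 and UniProt P9WPC3). Protease assay of ClpP1P2, read by the AMC dye that it sets free. Tested at 50 µM. Higher reads as stronger inhibition, judged from the few compounds that gave an IC50. Most other retested compounds had strongly negative values. Of about 69,000 compounds tested this way, about 10 (0.015%) reached 50% or more in at least one test.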
CoaBC: 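Coenzyme A biosynthesis protein CoaBC, Mycobacterium tuberculosis (UniProt P9WNZ1). Enzyme assay of CoaBC with a phosphate dye (Biomol Green) read at 650 nm. Compounds at 30 µM. Higher reads as stronger inhibition, judged from the few compounds that gave an IC50. Most strong results did not repeat in a second test. Size under these conditions: about 67,000 compounds, about 40 of them at 50% or above in at least one test.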
Leishmania in macrophages: 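Cell assay of Leishmania donovani living inside macrophages; the read-out is not stated. Concentration: 30 µM. Direction is inferred from retests: higher values go with stronger inhibition. Of about 69,000 compounds tested this way, about 1,000 (1.5%) reached 50% or more in at least one test.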
LiHisRS: 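Histidine-tRNA ligase, Leishmania infantum (UniProt A4I591). Enzyme assay of histidyl-tRNA synthetase; the read-out is not stated. Concentration: 30 µM. The record gives no direction; compounds that gave an IC50 in retests scored well above the rest, so higher reads as stronger inhibition. The assay is labelled LdHisRS but filed under L. infantum. Size under these conditions: about 69,000 compounds, about 410 of them at 50% or above in at least one test.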

| SMILES | ClpP1P2 | CoaBC | Leishmania in macrophages | LiHisRS |
|---|---|---|---|---|
| `CCCNC(=O)NC(=O)CNC(C)(C)c1ccc2c(c1)OCCO2` | -11.38 | -1.535 | 30.2 | 12.5 |
| `CC(Cn1cccn1)NCC(=O)NC1(C#N)CCCCC1` (centres undefined) | 5.745 | -2.174 | 31.4 | 21.21 |
| `O=C(CCOc1ccccc1F)N1CCCCC1Cn1cccn1` (centres undefined) | -36.97 | 6.003 | -14.02 | 8.036 |
| `CN(C)c1cc(CNC(=O)c2cccc(F)c2)ccn1` | -18.88 | -2.5 | -24.99 | 5.357 |
| `CCNc1cc2c(nn1)CCN(C(=O)c1ccsc1)C2` | -36.03 | 6.717 | 18.6 | 25 |
| `Cc1nc(C)c(C(=O)N2CCCC2(C)C(=O)NC2CCCC2)o1` (centres undefined) | -5.816 | -4.751 | -3.912 | 5.634 |
| `CC(=O)N1CCCC2(CCN(c3ccccc3)C2=O)C1` (centres undefined) | 24.65 | -0.6435 | 6.786 | -1.923 |
| `COCCN1CCN(Cc2nnc(-c3occc3C)o2)CC1` | -7.654 | -8.685 | 17.64 | 19.15 |
| `O=C(CCNC(=O)c1ccccc1N1CCOCC1)NC1CCCC1` | -7.84 | 4.946 | 24.01 | 11.43 |
| `COCC(=O)N[C@@H]1CN(Cc2c[nH]nc2-c2cccs2)C[C@H]1O` | 9.177 | -9.809 | 25.84 | 15.83 |
| `N#Cc1cccnc1NCCNC(=O)N1CCN2CCCCC2C1` (centres undefined) | -13.88 | -7.051 | 11.19 | -1.37 |
| `CN(C)C1COC2(CCN(Cc3ccc4c(c3)OCO4)CC2)C1` (centres undefined) | -6.197 | -5.019 | - | 19.23 |
| `CN(C)C(=O)N1CCCC2(CCN(Cc3ccc(Cl)c(F)c3)C2)C1` (centres undefined) | 17.4 | 4.167 | 8.536 | 11.11 |
| `COCc1ccccc1C(=O)NS(=O)(=O)c1ccc2c(c1)CCC(=O)N2` | -22.97 | 1.463 | 29.66 | 16 |
| `Cc1oncc1C(=O)N1CCC2(CC1)C(c1cnn(C)c1)CC(=O)N2C` (centres undefined) | 5.841 | 2.637 | 29.03 | 13.76 |
| `c1ccc(OC[C@]23COC[C@H]2CN(Cc2ccoc2)C3)nc1` | -4.553 | 7.487 | - | 20.75 |
| `c1cnc(N2CCCC3(CCN(Cc4ccsc4)C3)C2)nc1` (centres undefined) | 6.022 | 1.826 | 17.43 | 19.27 |
| `CCCOc1ccc(Cl)cc1NC(=O)NCCC(=O)N(C)C` | -2.21 | 4.018 | 10.53 | 17.7 |
| `COc1cc(N(C)CCC(O)c2ccccc2)ncn1` (centres undefined) | 1.132 | 3.268 | -14.98 | 3.509 |
| `COC(=O)c1cc(NC2CCN(CC(F)(F)F)C2=O)ccc1C` (centres undefined) | -15.51 | -0.2475 | 1.068 | 18 |
| `O=C(O)C(F)(F)F.O=C(O)C(F)(F)F.[H][C@@]12CO[C@@H](CN(C)C)[C@]1([H])CCN(Cc1ccoc1)C2` | - | - | 17.47 | - |
| `CC(C)(CN1CCC2(CCNCC2)CC1)N1CCOCC1` | 2.627 | -14.12 | -5.578 | 1.333 |
| `O=C(NCCCNc1ccc(C(F)(F)F)cn1)c1ccc(F)cc1` | -8.145 | 4.348 | 19.15 | 9.174 |
| `O=C(CCSc1ccccc1F)NS(=O)(=O)c1ccc2c(c1)OCCO2` | -20.74 | 1.895 | -8.15 | 0 |
| `COCC1CN(c2ccc(C)nn2)Cc2cnn(CC3CCOCC3)c21.O=C(O)C(F)(F)F.O=C(O)C(F)(F)F` (centres undefined) | - | - | 5.189 | - |
| `Cc1ccc(CN(C)C(=O)NCC(C)(C)NS(C)(=O)=O)s1` | 3.32 | 18.79 | 24.42 | 11.43 |
| `CCc1cc(=O)[nH]c(-c2ccc(NC(C)COC)nc2)n1` (centres undefined) | -2.529 | 6.163 | 28.47 | 17.33 |
| `CN(C)C1CC2(CCN(C(=O)NC3CC3)CC2)c2ccccc21.O=C(O)C(F)(F)F` (centres undefined) | - | - | 47.2 | - |
| `O=c1[nH]nc2c(S(=O)(=O)N3CCN(c4ccc(F)cc4)CC3)cccn12` | -15.02 | -3.632 | -11.89 | 0 |
| `CCOc1ncccc1NC(=O)c1cc2c(s1)CCC2` | 10.17 | 17.3 | 33.03 | 25.96 |
| `CS(=O)(=O)c1cccc(C(=O)NCC2(c3ccccc3)CC2)c1` | 10.08 | -4.032 | 24.29 | 8.772 |
| `Cc1cc(NC(C)Cc2cccnc2)n2nccc2n1` (centres undefined) | 21.43 | 1.148 | 25.15 | 16.33 |
| `CCNc1ncc(C(=O)N2CCC(c3ccccc3C(=O)O)C2)cn1` (centres undefined) | -27.08 | 5.093 | 22.92 | 9.167 |
| `CCc1nc2n(n1)CC(NCC(=O)Nc1nccs1)CC2` (centres undefined) | -13.37 | 5.913 | -26.72 | -1.124 |
| `O=C(O)C(F)(F)F.O=C(O)C(F)(F)F.[H][C@@]12OCCC[C@]1([H])N(Cc1cnn(C)c1)C[C@@H]2N1CCOCC1` | - | - | 14.67 & 19.22 | - |
| `CC(=O)N[C@H]1CCO[C@@H](c2cccc(NC(=O)c3cccc(F)c3)c2)C1` | -13.55 | -2.421 | -29.22 | 1.399 |
| `CCCc1nc(CNc2nc(C)nc3oc(C)nc23)cs1` | -2.121 | 3.2 | 18.45 | 12.82 |
| `COc1ccc(C(=O)N2Cc3c(Cn4ccnc4)nn(C)c3C2)cc1` | 5.541 | 12.95 | 25.4 | 15.33 |
| `O=C(NC[C@H]1C[C@@H]2CN(C(=O)c3ccno3)C[C@@H]2O1)C1CCC1` | -5.757 | - | - | 15.38 |
| `Cc1cnc(C(=O)N2Cc3ccccc3OC3(CCOCC3)C2)cn1` | -6.575 | 0.9732 | 4.266 & 9.671 | 26.32 |
| `[H][C@@]12CN(C(=O)N3CCOCC3)C[C@]1([H])OCCN2C(=O)c1ccco1` | - | - | 21.85 | - |
| `Cc1nc(C)n(CC2CCCN(CCc3ccncc3)C2)n1` (centres undefined) | -3.455 | 2.345 | 27.42 | 21.15 |
| `O=S(=O)(c1cn[nH]c1)N1C[C@@H](O)[C@H](N2CCc3ccccc3C2)C1` | -11.56 | -9.448 | -25.81 | 9.929 |
| `c1ccc(CN2CCCC3(CCN(CC4CCCO4)CC3)C2)nc1` (centres undefined) | 11.72 | -8.292 | - | 19.8 |
| `O=C(NC1CCS(=O)(=O)C1)c1cn(C2CC2)c(=O)c2ccccc12` (centres undefined) | 10.06 | 1.205 | 22.97 | 18.68 |
| `CNC(=O)CN1CC[C@H]2CN(C(=O)c3cccc(C)c3)C[C@H]2C1` | -13.96 | -9.136 | - | 5.556 |
| `Cn1cnc(S(=O)(=O)N2CC3(CCN(Cc4ccncc4)C3)C2)c1.O=C(O)C(F)(F)F.O=C(O)C(F)(F)F.O=C(O)C(F)(F)F` | - | - | 38.3 | - |
| `CC(CCSc1ccccc1)N1CCCN(C(N)=O)CC1` (centres undefined) | 11.49 | - | 14.04 | 20 |
| `CCN(CC1CN(Cc2ncc(C)o2)CCO1)c1cccnn1` (centres undefined) | -8.881 | -16.52 | 23.11 | 14.56 |
| `O=C(O)C(F)(F)F.[H][C@@]12CCN(c3ncccn3)[C@@]1([H])CCN2C(=O)N1CCCC1` | - | - | 10.96 | - |
| `CC(O)CN1CCN(Cc2coc(-c3ccccc3)n2)CC1` (centres undefined) | 6.369 | 6.258 | 4.247 | 5.882 |
| `Cl.O=C(NC1CCCC1)c1cc(C2CCCNC2)n[nH]1` (centres undefined) | - | - | 20.6 | - |
| `CC(C)C(C)(C#N)NC(=O)Cn1cc(-c2ccccc2)cn1` (centres undefined) | 6.908 | 11.16 | 28.05 | 9.333 |
| `CC(C)S(=O)(=O)NC(=O)c1cc(-c2cccc(Cl)c2)no1` | -31.05 | 4.146 | -14.74 | 9.6 |
| `CC(C)(CO)NCc1nn(Cc2ccccc2)nc1-c1ccccc1` | -15.12 | -6.697 | -68.3 | -3.448 |
| `CN(c1cccnc1N1CCCC1)S(=O)(=O)c1cccs1` | -3.49 | 14.26 | -92.91 | 24.66 |
| `Cc1cc(CN2CCN(C(C)C)C(CCO)C2)[nH]n1` (centres undefined) | 11.92 | -1.025 | 0.4197 | 18.57 |
| `O=C(Cc1ccccc1)N1CCC2(CC(=O)N(c3ccsc3)C2)C1` (centres undefined) | 5.797 | 8.075 | 24.18 | 17.31 |
| `NCC1Cc2cc(F)cc(-c3cnccn3)c2O1` (centres undefined) | -0.2519 | 3.182 | 19.1 | 10.96 |
| `CC(C)C(=O)N1CCC2(COCc3cnc(-c4cccnc4)nc32)C1` (centres undefined) | 5.45 | 0.2469 | 9.986 | 8.182 |
| `O=C(O)C(F)(F)F.O=C(O)C(F)(F)F.[H][C@@]12COC[C@]1(C(=O)NCc1cccnc1)CN(Cc1scnc1C)C2` | - | - | 10.3 | - |
| `Cc1ncc(CN(C)Cn2nc(-c3ccccc3)oc2=O)s1` | -3.837 | 5.242 | 18.13 | 19.3 |
| `CC(NC(=O)COc1nc(C(C)(C)C)no1)c1ccco1` (centres undefined) | -5.497 | 1.493 | 2.467 | 21.15 |
| `O=C(NCCc1ccncc1)c1cccnc1OCC(F)(F)F` | 3.846 | 0.4854 | 5.608 | 11.88 |
| `[H][C@@]12C[C@H](c3nnc(C4CC4)o3)O[C@@]1([H])CCN(CC1CCOCC1)C2` | - | - | 3.155 | - |
| `Cc1ccc(CN2CC[C@H]3OCC[C@@H](c4nc(C)no4)[C@H]3C2)cc1` | 2.301 | 4.627 | - | 12.03 |
| `O=C(O)c1cnc2c(Br)cccc2c1O` | -14.74 | 0 | 14.51 | 15.04 |
| `CCN(CCO)C[C@@H]1CN(c2cc(C(F)(F)F)cc(C)n2)C[C@@H]1CO` | -7.722 | 4.43 | -9.514 | 6.024 |

7 of the entries, repeated:

{"smiles": "O=S(=O)(c1cn[nH]c1)N1C[C@@H](O)[C@H](N2CCc3ccccc3C2)C1", "ClpP1P2": -11.56, "CoaBC": -9.448, "Leishmania in macrophages": -25.81, "LiHisRS": 9.929}
{"smiles": "CCOc1ncccc1NC(=O)c1cc2c(s1)CCC2", "ClpP1P2": 10.17, "CoaBC": 17.3, "Leishmania in macrophages": 33.03, "LiHisRS": 25.96}
{"smiles": "CCc1cc(=O)[nH]c(-c2ccc(NC(C)COC)nc2)n1", "stereo": "centres undefined", "ClpP1P2": -2.529, "CoaBC": 6.163, "Leishmania in macrophages": 28.47, "LiHisRS": 17.33}
{"smiles": "CCN(CC1CN(Cc2ncc(C)o2)CCO1)c1cccnn1", "stereo": "centres undefined", "ClpP1P2": -8.881, "CoaBC": -16.52, "Leishmania in macrophages": 23.11, "LiHisRS": 14.56}
{"smiles": "O=C(O)C(F)(F)F.O=C(O)C(F)(F)F.[H][C@@]12CO[C@@H](CN(C)C)[C@]1([H])CCN(Cc1ccoc1)C2", "Leishmania in macrophages": 17.47}
{"smiles": "Cc1ncc(CN(C)Cn2nc(-c3ccccc3)oc2=O)s1", "ClpP1P2": -3.837, "CoaBC": 5.242, "Leishmania in macrophages": 18.13, "LiHisRS": 19.3}
{"smiles": "CC(Cn1cccn1)NCC(=O)NC1(C#N)CCCCC1", "stereo": "centres undefined", "ClpP1P2": 5.745, "CoaBC": -2.174, "Leishmania in macrophages": 31.4, "LiHisRS": 21.21}